Measurements from the supplement of paper PMC12889115.
The other results are listed elsewhere or left out. These are raw signals, not scaled to a control.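 First-pass screen: polymyxin B was added at a level that permeabilizes the Salmonella outer membrane while sparing the inner membrane. DMSO wells, with and without polymyxin B, defined maximum growth. Because plates differed from one another, each plate's data were ranked separately and the compounds with the lowest OD600 were carried forward as hits.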

System: Salmonella enterica serovar Typhimurium SL1344
Experiment: bacterial growth OD600 after 18 h with compound and polymyxin B; higher = more bacterial growth (less inhibition)
Conditions: 50 µM, Mueller-Hinton broth

SMILES | bacterial growth OD600 (polymyxin B 0.75 µg/mL) | bacterial growth OD600 (polymyxin B 1 µg/mL)
CC(C)CN1CCC(CN(C)C(=O)CCc2nnc(-c3ccc4c(c3)OCO4)o2)CC1 | 0.76 | 
Cc1ccc(CN(C)Cc2cnc(S(=O)(=O)Cc3ccccc3)n2CC(C)C)o1 | 0.632 | 
COc1cc(C(=O)N(C)CCc2cnn(C)c2)ccc1OC1CCN(C2CCCC2)CC1 |  | 0.889
COc1ccc(C(=O)NC2CC(=O)N(Cc3ccc(F)cc3)C2)cc1C (configuration not stated) |  | 0.909
CCCc1cc(CNC(=O)c2ccc(N3CCN(CC)CC3)nc2)on1 |  | 1.15
O=C(CCc1ccc2c(c1)OCO2)NCCN1Cc2ccccc2OC(c2ccsc2)C1 (configuration not stated) | 0.484 | 
Cn1cc(CN2CCc3c([nH]c4ccccc34)C2C2CCCCC2)cn1 (configuration not stated) | 0.697 | 
O=C1CC(NS(=O)(=O)N2CCCCC2)CN1CCc1ccc(F)cc1 (configuration not stated) |  | 0.831
O=C(NCC1Cc2cc(Cl)cc(-c3ccncc3)c2O1)[C@@H]1C[C@@H]2C=C[C@H]1C2 (some centres not stated) | 0.004 | 
COc1c(C)cc(C(=O)C2CCCN(Cc3csc(C(C)=O)c3)C2)cc1C (configuration not stated) |  | 0.713
CC(C)/C=C/C(=O)N1CCC(C2(c3cccnc3)NC(=O)N(CCc3cccs3)C2=O)CC1 (configuration not stated) | 0.859 | 
Cc1cccnc1CNC(=O)CC(c1ccccc1)c1ccc2c(c1)OCO2 (configuration not stated) | 0.468 | 
O=C(NCC(F)(F)F)C1CCC(=O)N(CCc2cccc(F)c2)C1 (configuration not stated) |  | 0.994
Cc1c(CN2CCOc3ccc(C4=CCCCC4)cc3C2)c(=O)n(-c2ccccc2)n1C | 0.011 | 
O=C(c1ccc(-c2ccccc2)c(F)c1)C1CCCN(Cc2cccnc2)C1 (configuration not stated) |  | 0.364
COc1ccccc1C(=O)Nc1cccc(N2CCC(N[C@@H](Cc3ccccc3)C(N)=O)CC2)c1 | 0.972 | 

2 of these compounds, reformatted:
SMILES	bacterial growth OD600 (polymyxin B 0.75 µg/mL)	bacterial growth OD600 (polymyxin B 1 µg/mL)
COc1ccc(C(=O)NC2CC(=O)N(Cc3ccc(F)cc3)C2)cc1C (configuration not stated)		0.909
CCCc1cc(CNC(=O)c2ccc(N3CCN(CC)CC3)nc2)on1		1.15

(list continues)

SMILES | bacterial growth OD600 (polymyxin B 0.75 µg/mL) | bacterial growth OD600 (polymyxin B 1 µg/mL)
O=C(NC1CC(=O)N(Cc2cccc3ccccc23)C1)C1CCC1 (configuration not stated) |  | 0.931
CC(=O)N1CCC[C@H]1C(=O)N1CCOc2ccc(CN3CCC(OCc4ccccc4)CC3)cc2C1 | 0.834 | 
COCc1noc(-c2ccc(N(C)C(C)Cc3cc(C)ccn3)nc2)n1 (configuration not stated) |  | 0.942
Cc1ccc(Oc2ncccc2CNc2ncccn2)c(F)c1F |  | 0.852
COc1ccccc1-c1ccnc(-n2ncc(C(=O)NCCc3cccs3)c2C2CC2)n1 | 0.55 | 
C=CCC(=O)N1CCCC(Cc2ccccc2F)(C(=O)OCC)C1 (configuration not stated) |  | 0.869
CCC1CN(CCNC(=O)CSC)Cc2cc(OC)ccc2O1 (configuration not stated) | 0.835 | 
COc1ccc(CCC(=O)N2CCc3c(cnc(C)c3CNC(=O)c3ccc(C)s3)C2)cc1OC | 0.78 | 
CN(Cc1cnn(-c2ccc(F)cc2)c1)Cc1nc(-c2ccc3c(c2)OCO3)no1 |  | 1.05
COc1cccc(C(=O)NCC2CCCN(C/C(C)=C/c3ccccc3)C2)c1OC (configuration not stated) |  | 1.17
COc1ccc(CCN2CCCC(CN(C)C(=O)c3cc(F)cc(F)c3)C2)cc1 (configuration not stated) | 0.803 | 
CC(NC(=O)c1ccc(OC2CCN(S(C)(=O)=O)CC2)c(Cl)c1)c1ccccc1 (configuration not stated) |  | 0.904
Cc1nc2cc(OCc3nc(C(=O)N(C)C)co3)ccc2s1 |  | 0.924
Clc1ccccc1Cc1noc(CN2CCCCC2c2ccccn2)n1 (configuration not stated) |  | 0.786
COc1ccc(F)c(CN2CC[C@@H](N(C)CCc3ccccn3)[C@H](O)C2)c1 |  | 1.15
COC(=O)CCC(=O)NC1CC(C)(C)Cc2c1cnn2-c1ccc(C)cc1 (configuration not stated) |  | 0.853
